Values of other authors, collected in patent publication US20160287532A1 (SignPath Pharma Inc., priority 2015, published 2016).
For at least one compound, name, drawing or mass did not settle the structure.

Assays:
MMP-3 = settings: after treatment; decreased from 0.9 ng/mg tissue
MMP-1 = settings: after treatment; decreased from 0.03 ng/mg tissue

In the case of C[C@@H]1C[C@H]2[C@@H]3CCC4=CC(=O)C=C[C@]4(C)[C@@]3(F)[C@@H](O)C[C@]2(C)[C@@]1(O)C(=O)CO [dexamethasone, reference compound], the “concentration of total MMP-3 activity” value (MMP-3) is listed as 0.46 ng/mg tissue and the “concentration of total MMP-1 activity” value (MMP-1) is listed as 0.004 ng/mg tissue.
